Assay results: patent publication US12133851B2, “Treatment of cholangiocarcinoma” (Janssen Pharmaceutica NV, priority 2018, dated 2024)
Where two headings read alike, the source gives them in different places.

Key:
[1] = system: patients with FGFR-aberrant cholangiocarcinoma
[2] = Erdafitinib 8 mg (QD), N = 11
[3] = system: advanced cholangiocarcinoma subjects with FGFR alterations
Protocol: Tumor assessments: Conducted every 8 (±1) weeks up to 1 year from start of study drug, then every 12 (±1) weeks thereafter until the patient dies, or withdrawal of consent or conclusion of the study, whichever occurs first.
ORR (complete response [CR] or partial response [PR]) and disease control rate (DCR) was calculated with 95% CI.
PFS was represented with descriptive summary statistics; Kaplan-Meier method was used for evaluation.

[4] = snapshot as of 20 Mar. 2018, 8 mg qd

Structure (SMILES): COc1cc(OC)cc(N(CCNC(C)C)c2ccc3ncc(-c4cnn(C)c4)nc3c2)c1 [erdafitinib, N-(3,5-dimethoxy-phenyl)-N′-(1-methylethyl)-N-[3-(1-methyl-1H-pyrazol-4-yl)quinoxalin-6-yl]ethane-1,2-diamine]
- median duration of response ([1]; 9 mg QD or 10 mg intermittent, heavily pretreated population): 11.4 months
- median duration of response ([1]; median follow-up 5.5 mo, 95% CI 9.9 to 12.9 mo): 11.4 mo
- Drug-related TEAE Nail discolouration, Any grade [2]: 2 N
- Drug-related TEAE Nail discolouration, ≥Grade 3 [2]: 1 N
- Median PFS (progression free survival) ([3]; as of 20 Aug. 2018, 95% CI 1.87, NE): 5.59 months
- median duration of response (DOR) ([3]; as of 20 Aug. 2018, 95% CI 3.65, 12.16): 3.94 months
- clinical activity in patients with FGFR-aberrant advanced cholangiocarcinoma ([3]; conclusion of snapshot 20 Mar. 2018): encouraging clinical activity
- PFS duration ([3]; one PR patient with a FGFR2-KIAA1598 fusion): 5.59 months
- FGFR alterations of participants with confirmed or unconfirmed partial response [3, 4]: participants with FGFR2-KIAA1598 and DTWD2-FGFR2 fusions, with ESR2-FGFR2 fusion, with FGFR2 C390>YS mutation and with FGFR2-MGEA5 fusion
- FGFR alterations of participants with stable disease [3, 4]: participants with FGFR2-BICC1 fusion, with FGFR2 fusion with SBNO2 partner, with FGFR2 N549K mutation, and with FGFR2-KIAA1598 fusion
